Patent publication US4415558A, “CRF And analogs” (The Salk Institute for Biological Studies, priority 1982, dated 1983)
Not every detail of the peptide structures is certain; ends, links or a residue may be inferred.

Columns and labels:
[1] = system: cultured rat pituitary cells; assay: Secretion of ACTH and β-endorphin by cultured rat pituitary cells; format: cell-based; conditions: general procedure set forth in Example III; in vitro or in vivo not specified
Experimental: The synthetic and the natural CRF were examined for their effects on the secretion of ACTH and β-endorphin in vitro and the synthetic CRF was also examined in vivo. The high potency of synthetic and natural CRF to stimulate the secretion of ACTH and β-endorphin by cultured rat pituitary cells was measured. […] The secretory response to maximal (>5 nM) concentrations of CRF is at a plateau level. In vivo doses from 30 ng to 3 μg/Kg of body weight rapidly elevated ACTH and β-endorphin-like (β-END-LI) secretions 5-20 fold.

[2] = Blood pressure in rats (mean carotid blood pressure, urethane-anesthetized rat); format: in vivo; conditions: general procedure set forth in Example III
Experimental: Plasma levels of ACTH and β-END-LI are elevated for at least 5-20 minutes following the intravenous administration of CRF to nembutal-anesthesized male rats and to quiescent male or female rats with indwelling intravenous cannulae. […] Mean cartoid blood pressure in a urethane-anesthesized rat fell from 87 to 72±2 mm Hg and remained at that level for 30 minutes following an injection equal to 3 μg CRF/Kg body weight; the subsequent administration of an injection equal to 30 μg CRF/Kg body weight lowered mean blood pressure to 42±3 mm Hg for more than 2 hours.

With `C=CC(=O)N[C@@H](Cc1ccccc1)C(=O)NCC(=O)N[C@@H](C)C(=O)N[C@@H](CO)C(=O)N[C@@H](CCC(=O)O)C(=O)N1CCC[C@H]1C(=O)N1CCC[C@H]1C(=O)N[C@H](C(=O)N[C@@H](CO)C(=O)N[C@@H](CC(C)C)C(=O)N[C@@H](CC(=O)O)C(=O)N[C@@H](CC(C)C)C(=O)N[C@H](C(=O)N[C@@H](Cc1ccccc1)C(=O)N[C@@H](Cc1c[nH]cn1)C(=O)N[C@@H](CC(C)C)C(=O)N[C@@H](CC(C)C)C(=O)N[C@@H](CCCNC(=N)N)C(=O)N[C@@H](CCC(=O)O)C(=O)N[C@H](C(=O)N[C@@H](CC(C)C)C(=O)N[C@@H](CCC(=O)O)C(=O)N[C@@H](CCSC)C(=O)N[C@H](C(=O)N[C@@H](CCCCN)C(=O)N[C@@H](C)C(=O)N[C@@H](CC(=O)O)C(=O)N[C@@H](CCC(N)=O)C(=O)N[C@@H](CC(C)C)C(=O)N[C@@H](C)C(=O)N[C@@H](CCC(N)=O)C(=O)N[C@@H](CCC(N)=O)C(=O)N[C@@H](C)C(=O)N[C@@H](Cc1c[nH]cn1)C(=O)N[C@@H](CO)C(=O)N[C@@H](CC(N)=O)C(=O)N[C@@H](CCCNC(=N)N)C(=O)N[C@@H](CCCCN)C(=O)N[C@@H](CC(C)C)C(=O)N[C@@H](CC(C)C)C(=O)N[C@@H](CC(=O)O)C(=O)N[C@H](C(=O)N[C@@H](C)C(N)=O)[C@@H](C)CC)[C@@H](C)O)C(C)C)[C@@H](C)O)[C@@H](C)CC` [[Acrylyl-Phe-Gly-Ala^1, Ser^2 ]-CRF] the “Stimulation of secretion of ACTH and β-END-LI (in words)” value [1] was “stimulates the secretion of ACTH and β-END-LI” and the “Lowering of blood pressure (in words)” value [2] was “very significant lowering of blood pressure”.
With `CC[C@H](C)[C@H](NC(=O)[C@H](CC(=O)O)NC(=O)[C@H](CC(C)C)NC(=O)[C@H](CC(C)C)NC(=O)[C@H](CCCCN)NC(=O)[C@H](CCCNC(=N)N)NC(=O)[C@H](CC(N)=O)NC(=O)[C@H](CO)NC(=O)[C@H](Cc1c[nH]cn1)NC(=O)[C@H](C)NC(=O)[C@H](CCC(N)=O)NC(=O)[C@H](CCC(N)=O)NC(=O)[C@H](C)NC(=O)[C@H](CC(C)C)NC(=O)[C@H](CCC(N)=O)NC(=O)[C@H](CC(=O)O)NC(=O)[C@H](C)NC(=O)[C@H](CCCCN)NC(=O)[C@@H](NC(=O)[C@H](CC[S+](C)[O-])NC(=O)[C@H](CCC(=O)O)NC(=O)[C@H](CC(C)C)NC(=O)[C@@H](NC(=O)[C@H](CCC(=O)O)NC(=O)[C@H](CCCNC(=N)N)NC(=O)[C@H](CC(C)C)NC(=O)[C@H](CC(C)C)NC(=O)[C@H](Cc1c[nH]cn1)NC(=O)[C@H](Cc1ccccc1)NC(=O)[C@@H](NC(=O)[C@H](CC(C)C)NC(=O)[C@H](CC(=O)O)NC(=O)[C@H](CC(C)C)NC(=O)[C@H](CO)NC(=O)[C@@H](NC(=O)[C@@H]1CCCN1C(=O)[C@@H]1CCCN1C(=O)[C@H](CCC(=O)O)NC(=O)[C@H](CCC(N)=O)NC(=O)[C@@H](N)CO)[C@@H](C)CC)[C@@H](C)O)C(C)C)[C@@H](C)O)C(=O)N[C@@H](C)C(N)=O` (stereo partly shown) [[Met(O)^21]-CRF] the “Stimulation of secretion of ACTH and β-END-LI (in words)” value [1] was “stimulates the secretion of ACTH and β-END-LI” and the “Lowering of blood pressure (in words)” value [2] was “very significant lowering of blood pressure”.
